Measurements from the supplement of paper PMC10849652.
This is one part of the list. Residues, ends and D or L forms follow the SMILES beside them. *: point of attachment. Cbz = O=C(OCc1ccccc1)*

Chains of the proteins cited; added tags and fusions are not shown. Lines headed by an entry give the natural chain unless they say otherwise; changes in a name come on top.
UniProt Q9Y3B1: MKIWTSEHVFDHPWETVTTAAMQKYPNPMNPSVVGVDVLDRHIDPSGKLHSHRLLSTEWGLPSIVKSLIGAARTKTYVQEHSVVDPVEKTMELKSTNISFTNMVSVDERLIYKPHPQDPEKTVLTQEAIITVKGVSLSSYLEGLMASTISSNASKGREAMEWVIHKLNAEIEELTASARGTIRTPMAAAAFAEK
UniProt P07478, whole entry, looked up: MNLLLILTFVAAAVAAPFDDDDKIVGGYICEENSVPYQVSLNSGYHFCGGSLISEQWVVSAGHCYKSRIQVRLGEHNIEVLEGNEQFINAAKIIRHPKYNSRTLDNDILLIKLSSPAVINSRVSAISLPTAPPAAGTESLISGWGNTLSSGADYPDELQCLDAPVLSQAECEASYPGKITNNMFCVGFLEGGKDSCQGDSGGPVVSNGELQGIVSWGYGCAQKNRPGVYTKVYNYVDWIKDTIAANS
UniProt P54619: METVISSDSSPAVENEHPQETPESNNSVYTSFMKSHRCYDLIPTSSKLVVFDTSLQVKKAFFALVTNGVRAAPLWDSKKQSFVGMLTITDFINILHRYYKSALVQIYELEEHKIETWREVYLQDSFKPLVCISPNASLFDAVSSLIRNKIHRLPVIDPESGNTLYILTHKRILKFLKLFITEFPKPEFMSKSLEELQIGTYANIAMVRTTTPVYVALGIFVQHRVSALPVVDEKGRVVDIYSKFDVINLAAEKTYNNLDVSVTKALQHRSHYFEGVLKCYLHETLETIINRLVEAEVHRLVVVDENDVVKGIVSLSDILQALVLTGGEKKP
UniProt Q9Y478: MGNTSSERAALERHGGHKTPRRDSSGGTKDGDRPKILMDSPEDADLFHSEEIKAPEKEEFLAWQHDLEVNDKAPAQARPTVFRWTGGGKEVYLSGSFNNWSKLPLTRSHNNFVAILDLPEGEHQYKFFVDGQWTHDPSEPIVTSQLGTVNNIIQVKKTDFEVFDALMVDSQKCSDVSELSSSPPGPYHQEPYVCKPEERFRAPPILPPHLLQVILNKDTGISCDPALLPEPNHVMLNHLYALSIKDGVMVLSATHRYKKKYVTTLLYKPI
UniProt Q9UMR5: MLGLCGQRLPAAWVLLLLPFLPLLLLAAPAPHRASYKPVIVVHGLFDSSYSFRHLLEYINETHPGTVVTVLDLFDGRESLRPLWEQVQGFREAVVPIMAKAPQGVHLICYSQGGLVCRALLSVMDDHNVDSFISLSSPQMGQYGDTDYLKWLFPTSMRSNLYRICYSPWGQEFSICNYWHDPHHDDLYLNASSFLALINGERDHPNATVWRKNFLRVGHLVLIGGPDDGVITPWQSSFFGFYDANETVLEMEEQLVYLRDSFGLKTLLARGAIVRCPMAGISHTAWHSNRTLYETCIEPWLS
UniProt O75807, whole entry, looked up: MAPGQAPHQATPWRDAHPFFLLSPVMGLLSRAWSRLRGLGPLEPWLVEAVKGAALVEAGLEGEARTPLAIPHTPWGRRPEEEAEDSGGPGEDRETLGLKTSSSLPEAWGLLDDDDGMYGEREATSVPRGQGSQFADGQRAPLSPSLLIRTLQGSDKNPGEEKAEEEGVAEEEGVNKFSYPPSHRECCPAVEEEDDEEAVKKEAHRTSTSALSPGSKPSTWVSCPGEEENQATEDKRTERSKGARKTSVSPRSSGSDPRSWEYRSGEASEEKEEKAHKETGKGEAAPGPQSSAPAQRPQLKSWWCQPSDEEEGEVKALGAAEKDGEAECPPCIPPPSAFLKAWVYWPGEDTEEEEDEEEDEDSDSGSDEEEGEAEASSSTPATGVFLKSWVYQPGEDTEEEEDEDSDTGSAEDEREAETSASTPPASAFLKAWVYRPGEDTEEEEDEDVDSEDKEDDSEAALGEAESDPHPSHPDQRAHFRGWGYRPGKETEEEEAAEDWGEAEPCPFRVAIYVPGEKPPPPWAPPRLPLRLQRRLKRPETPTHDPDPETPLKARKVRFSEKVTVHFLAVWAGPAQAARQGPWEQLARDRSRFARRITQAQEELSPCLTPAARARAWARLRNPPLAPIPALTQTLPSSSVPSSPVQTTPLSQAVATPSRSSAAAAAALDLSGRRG
UniProt P50897: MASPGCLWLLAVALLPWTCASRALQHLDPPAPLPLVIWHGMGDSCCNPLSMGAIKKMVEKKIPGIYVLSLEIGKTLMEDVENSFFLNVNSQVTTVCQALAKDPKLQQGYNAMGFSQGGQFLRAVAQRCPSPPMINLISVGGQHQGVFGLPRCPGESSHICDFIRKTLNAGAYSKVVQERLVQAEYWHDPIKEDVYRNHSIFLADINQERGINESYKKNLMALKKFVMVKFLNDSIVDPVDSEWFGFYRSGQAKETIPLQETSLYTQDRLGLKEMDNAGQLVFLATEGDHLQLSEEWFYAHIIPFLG
UniProt P50336: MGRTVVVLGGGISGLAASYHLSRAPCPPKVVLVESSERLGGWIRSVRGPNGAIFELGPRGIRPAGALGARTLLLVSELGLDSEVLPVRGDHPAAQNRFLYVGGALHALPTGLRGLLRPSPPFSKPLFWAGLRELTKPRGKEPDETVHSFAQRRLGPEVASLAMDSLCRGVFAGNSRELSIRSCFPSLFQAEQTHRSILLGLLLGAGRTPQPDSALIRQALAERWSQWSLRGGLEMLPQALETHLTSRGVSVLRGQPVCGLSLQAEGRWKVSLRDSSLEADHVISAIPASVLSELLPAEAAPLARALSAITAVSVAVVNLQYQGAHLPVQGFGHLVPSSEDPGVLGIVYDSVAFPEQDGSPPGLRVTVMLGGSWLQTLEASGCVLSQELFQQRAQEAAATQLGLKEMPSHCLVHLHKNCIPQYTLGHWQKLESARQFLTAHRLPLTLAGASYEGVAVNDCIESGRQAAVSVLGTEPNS
UniProt Q9Y255: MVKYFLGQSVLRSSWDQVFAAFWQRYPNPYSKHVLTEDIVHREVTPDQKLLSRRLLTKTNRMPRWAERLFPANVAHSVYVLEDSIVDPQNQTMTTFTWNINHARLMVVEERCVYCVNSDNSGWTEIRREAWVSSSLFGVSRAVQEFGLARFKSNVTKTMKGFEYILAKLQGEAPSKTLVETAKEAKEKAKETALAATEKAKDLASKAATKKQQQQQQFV
UniProt O94806: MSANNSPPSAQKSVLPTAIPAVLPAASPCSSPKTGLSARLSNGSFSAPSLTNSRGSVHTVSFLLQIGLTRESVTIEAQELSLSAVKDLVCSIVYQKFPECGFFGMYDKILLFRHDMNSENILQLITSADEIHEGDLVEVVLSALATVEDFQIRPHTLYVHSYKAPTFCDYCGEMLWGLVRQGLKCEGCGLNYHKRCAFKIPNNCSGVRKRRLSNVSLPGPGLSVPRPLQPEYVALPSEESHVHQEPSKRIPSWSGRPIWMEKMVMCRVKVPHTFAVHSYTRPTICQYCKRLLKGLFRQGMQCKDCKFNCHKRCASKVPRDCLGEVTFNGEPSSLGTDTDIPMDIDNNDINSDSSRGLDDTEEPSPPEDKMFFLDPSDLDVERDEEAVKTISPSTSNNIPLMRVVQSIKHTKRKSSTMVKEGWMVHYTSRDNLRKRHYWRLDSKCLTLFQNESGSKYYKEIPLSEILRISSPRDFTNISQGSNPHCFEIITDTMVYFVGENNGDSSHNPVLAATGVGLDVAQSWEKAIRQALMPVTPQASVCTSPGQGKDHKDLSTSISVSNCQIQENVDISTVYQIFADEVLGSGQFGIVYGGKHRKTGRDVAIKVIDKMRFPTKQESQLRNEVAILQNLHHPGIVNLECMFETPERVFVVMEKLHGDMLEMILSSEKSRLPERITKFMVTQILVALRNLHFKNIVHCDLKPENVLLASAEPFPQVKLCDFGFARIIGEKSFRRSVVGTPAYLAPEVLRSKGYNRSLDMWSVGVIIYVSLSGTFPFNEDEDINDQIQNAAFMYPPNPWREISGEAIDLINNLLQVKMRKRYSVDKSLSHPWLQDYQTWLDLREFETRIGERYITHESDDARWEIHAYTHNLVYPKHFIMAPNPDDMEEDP
UniProt Q99633: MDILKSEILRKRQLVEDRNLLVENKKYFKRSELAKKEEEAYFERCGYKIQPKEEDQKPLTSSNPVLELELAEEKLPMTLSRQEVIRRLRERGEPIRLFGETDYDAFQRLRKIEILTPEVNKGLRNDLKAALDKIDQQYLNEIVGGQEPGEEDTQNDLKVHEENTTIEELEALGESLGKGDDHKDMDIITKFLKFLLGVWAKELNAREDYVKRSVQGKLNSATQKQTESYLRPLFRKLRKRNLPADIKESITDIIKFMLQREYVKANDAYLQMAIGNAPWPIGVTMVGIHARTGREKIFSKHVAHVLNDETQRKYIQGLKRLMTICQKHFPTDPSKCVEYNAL
UniProt O60678: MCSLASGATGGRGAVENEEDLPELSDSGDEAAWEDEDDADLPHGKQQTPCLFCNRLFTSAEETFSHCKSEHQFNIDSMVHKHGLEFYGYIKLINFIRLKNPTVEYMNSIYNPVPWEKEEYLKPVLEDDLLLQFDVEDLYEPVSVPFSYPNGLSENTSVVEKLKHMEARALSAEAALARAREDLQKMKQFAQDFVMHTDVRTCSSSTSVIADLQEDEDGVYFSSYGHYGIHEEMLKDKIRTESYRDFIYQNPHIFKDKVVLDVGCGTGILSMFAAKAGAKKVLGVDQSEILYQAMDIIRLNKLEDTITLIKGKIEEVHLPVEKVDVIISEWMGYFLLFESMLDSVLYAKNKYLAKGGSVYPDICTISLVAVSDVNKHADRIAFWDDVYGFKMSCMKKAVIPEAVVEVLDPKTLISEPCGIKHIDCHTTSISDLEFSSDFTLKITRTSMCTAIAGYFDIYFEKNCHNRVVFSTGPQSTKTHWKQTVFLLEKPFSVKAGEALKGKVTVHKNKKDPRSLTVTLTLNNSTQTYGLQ
UniProt P13861, whole entry, looked up: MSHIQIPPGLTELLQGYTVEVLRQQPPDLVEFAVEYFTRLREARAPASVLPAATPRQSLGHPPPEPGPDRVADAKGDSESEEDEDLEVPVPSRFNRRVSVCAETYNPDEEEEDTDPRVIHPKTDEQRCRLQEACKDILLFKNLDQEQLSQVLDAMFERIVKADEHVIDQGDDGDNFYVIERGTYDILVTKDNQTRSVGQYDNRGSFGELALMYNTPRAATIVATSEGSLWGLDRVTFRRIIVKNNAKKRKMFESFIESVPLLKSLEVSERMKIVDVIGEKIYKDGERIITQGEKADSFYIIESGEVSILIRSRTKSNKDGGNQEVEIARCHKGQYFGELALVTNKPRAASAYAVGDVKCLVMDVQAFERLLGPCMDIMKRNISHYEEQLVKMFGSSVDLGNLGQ
UniProt Q02156: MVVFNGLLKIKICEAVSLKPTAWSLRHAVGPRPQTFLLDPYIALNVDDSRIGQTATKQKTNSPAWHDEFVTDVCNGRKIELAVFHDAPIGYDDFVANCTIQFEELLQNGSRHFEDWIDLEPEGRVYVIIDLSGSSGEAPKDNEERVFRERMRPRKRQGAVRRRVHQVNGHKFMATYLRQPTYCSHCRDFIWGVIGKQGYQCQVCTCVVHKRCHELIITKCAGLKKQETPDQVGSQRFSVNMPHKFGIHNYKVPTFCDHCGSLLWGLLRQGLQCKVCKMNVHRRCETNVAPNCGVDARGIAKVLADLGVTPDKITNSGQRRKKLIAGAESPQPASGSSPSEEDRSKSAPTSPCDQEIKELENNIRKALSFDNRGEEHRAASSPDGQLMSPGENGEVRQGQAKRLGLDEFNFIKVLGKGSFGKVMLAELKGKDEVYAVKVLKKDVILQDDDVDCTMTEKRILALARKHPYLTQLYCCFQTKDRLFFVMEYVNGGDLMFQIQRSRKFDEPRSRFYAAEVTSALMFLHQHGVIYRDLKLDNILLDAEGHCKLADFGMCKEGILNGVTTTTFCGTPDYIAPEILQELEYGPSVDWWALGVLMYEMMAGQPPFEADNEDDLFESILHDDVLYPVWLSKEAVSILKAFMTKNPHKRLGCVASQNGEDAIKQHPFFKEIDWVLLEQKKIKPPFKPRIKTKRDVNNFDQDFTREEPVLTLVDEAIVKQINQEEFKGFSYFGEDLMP
UniProt P41219, whole entry, looked up: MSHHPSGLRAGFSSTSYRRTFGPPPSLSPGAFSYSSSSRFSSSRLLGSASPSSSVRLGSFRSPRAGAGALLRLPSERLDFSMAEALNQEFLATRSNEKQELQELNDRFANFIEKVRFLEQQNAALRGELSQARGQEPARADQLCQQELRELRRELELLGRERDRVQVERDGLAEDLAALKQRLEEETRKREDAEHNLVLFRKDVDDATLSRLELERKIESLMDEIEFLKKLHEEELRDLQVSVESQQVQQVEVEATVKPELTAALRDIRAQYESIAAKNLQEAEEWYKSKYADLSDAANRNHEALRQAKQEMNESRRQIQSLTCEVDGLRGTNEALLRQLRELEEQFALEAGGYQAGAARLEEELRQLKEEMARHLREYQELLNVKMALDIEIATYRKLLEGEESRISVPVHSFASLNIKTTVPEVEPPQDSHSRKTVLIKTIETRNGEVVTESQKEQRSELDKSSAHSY

What was measured:
Assay in all cases: log2 fold change, soluble protein after heating vs DMSO (PISA); higher = thermal stabilisation; K562 cells, 10 uM, 30 min; active = over 0.2 and 3.5 SD of the protein, either way, in both replicates (recomputed)
erlotinib = compound: C#Cc1cccc(Nc2ncnc3cc(OCCOC)c(OCCOC)cc23)c1 [erlotinib]
Method in brief: (§1)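 K562 cells at 2×10^6 cells/mL were given 10 μM compound for 30 min. Aliquots then went through 3 min of heating across 48°C-58°C, were pooled, and were extracted in PBS with 0.5% NP-40 at 4°C, and the supernatant after 21,000xg for 90 min was quantified by TMTpro 16plex LC-MS/MS with channel sums equalised. Thermal stability relative to control samples, from duplicates, is given as log2 fold change.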

[1] = compound: C/C(=N\NC(=O)C1=CC(=CC=C1)S(=O)(=O)N2CCOCC2)/C3=C(C=CC(=C3)Cl)O
Method in brief: as §1

[2] = compound: C1=CC(=C(C=C1Cl)C2=NC3=NC=CN=C3C(=N2)NC4=CC=NC=C4)F
Method in brief: as §1

[3] = compound: C1=CC(=CC=C1C2=NC3=C(N2)C=C(C=C3)C(=O)N)OC4=CC=C(C=C4)Cl
Method in brief: as §1

[4] = compound: C1=CC2=C(C=CC(=C2)/C=C\3/C(=O)NC(=NCC4=CC=CS4)S3)N=C1
Method in brief: as §1

[5] = compound: C1=CC2=NC=CN=C2C=C1/C=C/3\C(=O)NC(=O)S3
Method in brief: as §1

[6] = compound: C1=CC=C(C=C1)C2=NC(=C(N2)C3=CC=NC=C3)C4=CC(=C(C=C4)Cl)O
Method in brief: as §1

[7] = compound: C1=CC=C2C(=C1)C3=NNC4=CC=CC(=C43)C2=O
Method in brief: as §1

[8] = compound: C1CCN(C1)C(=O)NC2=CC=CC(=C2)NC3=NC=C(C(=N3)NCCC4=CN=CN4)Br
Method in brief: as §1

[9] = compound: C1CN(CCC1(CC2=CC=C(C=C2)Cl)N)C3=NC=NC4=C3C=CN4
Method in brief: as §1

IRAK-1-4 Inhibitor I = compound: C1COCCN1CCN2C3=CC=CC=C3N=C2NC(=O)C4=CC(=CC=C4)[N+](=O)[O-] [IRAK-1-4 Inhibitor I]
Method in brief: as §1

ibrutinib = compound: C=CC(=O)N1CCC[C@@H](n2nc(-c3ccc(Oc4ccccc4)cc3)c3c(N)ncnc32)C1 [ibrutinib]
Method in brief: as §1

[10] = compound: CC(=O)c1cnc2ccc(-c3cc(Cl)c(O)c(Cl)c3)nc2c1N[C@H]1CC[C@H](CN(C)C)CC1
Method in brief: as §1

ralimetinib = compound: CC(C)(C)Cn1c(N)nc2ccc(-c3[nH]c(C(C)(C)C)nc3-c3ccc(F)cc3)nc21 [ralimetinib]
Method in brief: as §1

[11] = compound: CC(C)(O)CC(=O)NCCn1ccc2ncnc(Nc3ccc(Oc4cccc(C(F)(F)F)c4)c(Cl)c3)c21
Method in brief: as §1

[12] = compound: CC(C)C1=C2N=C(C=C(N2N=C1)NCC3=CC=CC=C3)NCCCCCCN
Method in brief: as §1

[13] = compound: CC(C)C[C@@H](C=O)NC(=O)[C@H](CC(C)C)NC(=O)[C@H](CC(C)C)NC(=O)OCc1ccccc1
Method in brief: as §1

pinometostat = compound: CC(C)N(C[C@H]1O[C@@H](n2cnc3c(N)ncnc32)[C@H](O)[C@@H]1O)[C@H]1C[C@@H](CCc2nc3cc(C(C)(C)C)ccc3[nH]2)C1 [pinometostat]
Method in brief: as §1

[14] = compound: CC1=C(C2=C(C=C1)C(=O)C3=CC=CC=C3N2CCCN)C
Method in brief: as §1

[15] = compound: CC1=C(C(CC(=O)N1)C2=CC=C(C=C2)C(F)(F)F)C(=O)NC3=C(C=C4C(=C3)C=NN4)F
Method in brief: as §1

Measured: log2 fold change

PRKACA (UniProt P17612)
inactive: erlotinib 0.013 | [1] 0.033 | [2] -0.054 | [3] -0.016 | [4] -0.034 | [5] 0.042 | [6] 0.087 | [7] -0.025 | [8] -0.142 | [9] 0.047 | IRAK-1-4 Inhibitor I 0.023 | ibrutinib -0.011 | [10] -0.038 | ralimetinib -0.01 | [11] 0.01 | [12] 0.008 | [13] 0.005 | pinometostat -0.06 | [14] -0.034

PRELID3B (UniProt Q9Y3B1)
inactive: erlotinib -0.063 | [1] 0.208 | [2] -0.047 | [3] 0.271 | [4] 0.082 | [7] 0.006 | [8] -0.107 | [9] -0.041 | [10] -0.152 | [11] 0.177 | [12] -0.573 | [14] -0.035

PPP3CA (UniProt Q08209)
inactive: erlotinib 0.035 | [1] 0.015 | [3] -0.003 | [4] 0.116 | [5] 0.015 | [6] -0.118 | [7] -0.012 | [8] -0.066 | [9] 0.029 | IRAK-1-4 Inhibitor I 0.083 | ibrutinib -0.01 | [10] 0.089 | ralimetinib -0.099 | [12] 0.043 | [13] -0.061 | pinometostat -0.04 | [15] -0.173 | [14] -0.163

Retrieved one by one from the entries so far (2):
PRELID3B (UniProt Q9Y3B1)
inactive: erlotinib -0.063 | [1] 0.208 | [2] -0.047 | [3] 0.271 | [4] 0.082 | [7] 0.006 | [8] -0.107 | [9] -0.041 | [10] -0.152 | [11] 0.177 | [12] -0.573 | [14] -0.035

PRKACA (UniProt P17612)
inactive: erlotinib 0.013 | [1] 0.033 | [2] -0.054 | [3] -0.016 | [4] -0.034 | [5] 0.042 | [6] 0.087 | [7] -0.025 | [8] -0.142 | [9] 0.047 | IRAK-1-4 Inhibitor I 0.023 | ibrutinib -0.011 | [10] -0.038 | ralimetinib -0.01 | [11] 0.01 | [12] 0.008 | [13] 0.005 | pinometostat -0.06 | [14] -0.034

(next part)

PRSS2 (UniProt P07478)
inactive: erlotinib 0.142 | [1] -0.045 | [2] 0.271 | [3] -0.065 | [4] 0.023 | [5] -0.016 | [7] -0.047 | [8] 0.215 | [9] 0.009 | IRAK-1-4 Inhibitor I 0 | ibrutinib 0.099 | [10] -0.024 | [11] 0.068 | [12] -0.09 | pinometostat 0.06 | [15] -0.048 | [14] -0.294

PRKAG1 isoform 3 (UniProt P54619)
active: [10] -0.266
inactive: erlotinib 0.025 | [1] 0.038 | [2] -0.016 | [3] -0.012 | [4] 0.083 | [5] 0.032 | [6] 0.037 | [7] -0.015 | [8] -0.007 | [9] 0.045 | IRAK-1-4 Inhibitor I 0.042 | ibrutinib -0.019 | ralimetinib 0.001 | [11] -0.011 | [12] -0.067 | [13] -0.025 | pinometostat 0.015 | [14] 0.013

PRKAB1 (UniProt Q9Y478)
inactive: erlotinib 0.043 | [1] 0.15 | [2] 0.052 | [3] -0.011 | [4] -0.06 | [5] 0.024 | [6] 0.019 | [7] 0.026 | [8] -0.076 | [9] 0.068 | IRAK-1-4 Inhibitor I 0.015 | ibrutinib -0.02 | [10] -0.184 | ralimetinib 0.022 | [11] -0.069 | [12] -0.006 | [13] -0.041 | pinometostat -0.048 | [14] 0.015

PPT2 isoform 3 (UniProt Q9UMR5)
inactive: erlotinib 0 | [1] 0.056 | [2] 0.033 | [3] -0.001 | [4] -0.026 | [5] -0.02 | [6] 0.038 | [7] 0.039 | [8] -0.012 | [9] 0.031 | IRAK-1-4 Inhibitor I 0.078 | ibrutinib 0.036 | [10] -0.04 | ralimetinib 0.052 | [11] 0.006 | [12] -0.17 | [13] -0.014 | pinometostat -0.041 | [14] 0.037

PPP1R15A (UniProt O75807)
inactive: erlotinib -0.018 | [2] 0.042 | [3] -0.112 | IRAK-1-4 Inhibitor I 0.092 | [11] 0.129 | [12] 0.287 | pinometostat -0.033

PPT1 (UniProt P50897)
active: [12] -0.406
inactive: erlotinib 0.01 | [1] -0.011 | [2] 0.018 | [3] -0.003 | [4] 0.04 | [5] 0.007 | [6] 0.01 | [7] 0.024 | [8] 0.036 | [9] -0.009 | IRAK-1-4 Inhibitor I 0.041 | ibrutinib 0.049 | [10] 0.008 | ralimetinib -0.072 | [11] 0.039 | [13] 0.048 | pinometostat -0.036 | [14] -0.06

PPOX (UniProt P50336)
inactive: erlotinib 0.112 | [1] 0.415 | [2] 0.156 | [3] 0.416 | [4] 0.039 | [5] -0.004 | [6] 0.095 | [7] 0.013 | [8] 0.051 | [9] -0.011 | IRAK-1-4 Inhibitor I 0.095 | ibrutinib 0.136 | [10] -0.151 | ralimetinib 0.077 | [11] 0.187 | [12] -0.217 | [13] -0.008 | pinometostat -0.039 | [14] -0.009

PRELID1 (UniProt Q9Y255)
inactive: erlotinib -0.168 | [2] -0.016 | [3] 0.111 | [5] 0.033 | [8] -0.178 | [9] 0.184 | IRAK-1-4 Inhibitor I 0.148 | ibrutinib -0.06 | [11] 0.085 | [12] 0.224 | pinometostat -0.054 | [15] -0.025 | [14] -0.123

PRKD3 (UniProt O94806)
inactive: erlotinib 0.051 | [1] 0.373 | [3] 0.013 | [4] -0.197 | [5] 0.034 | [6] 0.055 | [7] -0.507 | IRAK-1-4 Inhibitor I 0.189 | ibrutinib 0.059 | ralimetinib -0.089 | [12] -0.129 | [13] 0.06 | pinometostat 0.266
active: [10] -2.06

PRPF18 (UniProt Q99633)
inactive: erlotinib 0.07 | [1] 0.11 | [2] 0.024 | [3] -0.183 | [4] 0.084 | [5] -0.031 | [7] -0.051 | [8] -0.28 | [9] 0.143 | IRAK-1-4 Inhibitor I 0.036 | ibrutinib -0.045 | [10] -0.203 | [11] -0.191 | [12] 0.032 | pinometostat -0.107 | [15] -0.018 | [14] -0.048

PRMT3 (UniProt O60678)
inactive: erlotinib -0.056 | [1] 0.147 | [2] 0.03 | [3] 0.027 | [4] 0.066 | [5] 0.011 | [6] 0.028 | [7] -0.003 | [8] -0.01 | [9] -0.089 | IRAK-1-4 Inhibitor I 0 | ibrutinib -0.102 | [10] -0.023 | ralimetinib -0.028 | [11] -0.167 | [12] -0.189 | [13] 0.028 | pinometostat 0.003 | [14] 0.079

PRKAR2A (UniProt P13861)
active: [9] -0.486 | [10] -0.696
inactive: erlotinib -0.002 | [1] 0.013 | [2] -0.024 | [3] 0.062 | [4] 0.082 | [5] -0.005 | [6] -0.021 | [7] -0.004 | [8] -0.177 | IRAK-1-4 Inhibitor I 0.006 | ibrutinib 0.013 | ralimetinib 0.047 | [11] -0.036 | [12] -0.002 | [13] -0.023 | pinometostat 0.074 | [14] 0.058

PRKCE (UniProt Q02156)
inactive: erlotinib -0.076 | [1] 0.107 | [2] 0.111 | [3] 0.057 | [4] 0.06 | [5] 0.057 | [7] 0.004 | [8] -0.019 | [9] -0.095 | IRAK-1-4 Inhibitor I -0.02 | ibrutinib -0.013 | [11] -0.026 | [12] -0.153 | pinometostat -0.051 | [14] -0.009
active: [10] -0.468

PRPH isoform 2 (UniProt P41219)
inactive: erlotinib 0.046 | [1] -0.181 | [3] 0.034 | [4] -0.234 | [5] 0.097 | [6] -0.231 | [7] -0.1 | [8] 0.122 | [9] -0.105 | IRAK-1-4 Inhibitor I -0.122 | ibrutinib 0.171 | [10] 0.144 | ralimetinib 0.226 | [12] -0.081 | [13] 0.006 | pinometostat 0.097 | [15] 0.056 | [14] -0.287
